In publication PMC3215728:
These are yes or no findings as the source states them, for the method shown.

Sequences of proteins named here, by UniProt entry; tags and fusion partners are left off.
UniProt O75923: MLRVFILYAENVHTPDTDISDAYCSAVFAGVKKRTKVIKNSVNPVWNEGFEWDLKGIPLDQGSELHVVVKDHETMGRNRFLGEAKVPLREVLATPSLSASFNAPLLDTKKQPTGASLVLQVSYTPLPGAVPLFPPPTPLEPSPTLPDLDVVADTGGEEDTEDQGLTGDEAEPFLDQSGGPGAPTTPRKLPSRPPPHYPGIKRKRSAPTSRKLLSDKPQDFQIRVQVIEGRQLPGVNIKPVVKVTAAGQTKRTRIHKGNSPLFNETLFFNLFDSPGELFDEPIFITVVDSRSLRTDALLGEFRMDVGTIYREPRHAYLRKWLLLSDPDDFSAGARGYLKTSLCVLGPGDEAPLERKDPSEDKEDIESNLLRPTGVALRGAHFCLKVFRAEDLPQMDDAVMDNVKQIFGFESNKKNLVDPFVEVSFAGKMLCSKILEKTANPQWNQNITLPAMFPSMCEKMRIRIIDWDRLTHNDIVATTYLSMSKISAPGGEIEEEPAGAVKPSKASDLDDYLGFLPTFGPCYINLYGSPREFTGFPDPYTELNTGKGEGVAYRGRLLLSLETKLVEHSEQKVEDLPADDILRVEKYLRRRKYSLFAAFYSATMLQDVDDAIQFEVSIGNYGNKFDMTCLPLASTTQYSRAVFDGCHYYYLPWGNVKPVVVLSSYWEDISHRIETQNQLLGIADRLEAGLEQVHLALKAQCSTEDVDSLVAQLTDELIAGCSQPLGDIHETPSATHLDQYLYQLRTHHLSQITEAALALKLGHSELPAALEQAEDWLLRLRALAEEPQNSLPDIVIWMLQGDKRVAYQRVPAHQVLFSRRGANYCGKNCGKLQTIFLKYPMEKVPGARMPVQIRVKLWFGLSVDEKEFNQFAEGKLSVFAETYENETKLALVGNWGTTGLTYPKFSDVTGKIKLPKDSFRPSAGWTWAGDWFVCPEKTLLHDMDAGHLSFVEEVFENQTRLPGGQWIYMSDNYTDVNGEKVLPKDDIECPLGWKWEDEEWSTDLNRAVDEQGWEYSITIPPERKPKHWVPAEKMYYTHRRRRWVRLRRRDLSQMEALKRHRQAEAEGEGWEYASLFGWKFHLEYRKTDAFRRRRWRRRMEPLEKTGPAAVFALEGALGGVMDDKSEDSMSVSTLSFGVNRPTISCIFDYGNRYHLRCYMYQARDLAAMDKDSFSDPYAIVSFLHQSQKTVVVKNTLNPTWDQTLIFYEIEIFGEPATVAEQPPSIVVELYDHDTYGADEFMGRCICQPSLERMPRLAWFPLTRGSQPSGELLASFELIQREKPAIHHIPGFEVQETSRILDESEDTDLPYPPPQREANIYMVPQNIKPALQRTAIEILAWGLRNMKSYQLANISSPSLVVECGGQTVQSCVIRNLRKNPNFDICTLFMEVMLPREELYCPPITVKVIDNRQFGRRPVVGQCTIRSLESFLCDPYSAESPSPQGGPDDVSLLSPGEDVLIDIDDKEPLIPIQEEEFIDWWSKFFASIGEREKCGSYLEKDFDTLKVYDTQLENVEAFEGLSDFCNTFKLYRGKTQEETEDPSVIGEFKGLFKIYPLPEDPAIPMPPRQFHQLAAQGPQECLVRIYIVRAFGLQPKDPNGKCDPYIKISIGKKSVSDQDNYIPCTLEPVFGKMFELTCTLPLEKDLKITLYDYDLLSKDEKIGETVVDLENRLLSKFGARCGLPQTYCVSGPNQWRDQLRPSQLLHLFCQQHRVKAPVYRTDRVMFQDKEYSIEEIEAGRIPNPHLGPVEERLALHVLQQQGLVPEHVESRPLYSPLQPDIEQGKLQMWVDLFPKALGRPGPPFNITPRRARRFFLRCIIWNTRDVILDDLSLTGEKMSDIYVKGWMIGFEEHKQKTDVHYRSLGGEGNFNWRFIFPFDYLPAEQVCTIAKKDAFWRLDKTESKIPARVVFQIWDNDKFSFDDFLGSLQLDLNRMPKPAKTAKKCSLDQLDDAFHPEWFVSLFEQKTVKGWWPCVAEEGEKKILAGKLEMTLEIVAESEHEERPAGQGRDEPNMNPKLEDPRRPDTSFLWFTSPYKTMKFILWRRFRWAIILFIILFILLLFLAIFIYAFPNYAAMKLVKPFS

Experiments:
[1] = molecular target: CFP-dysferlin / YFP-dysferlin (full-length human dysferlin) expressed in HEK293 cells (human) (UniProt O75923); experiment: fluorescence correlation spectroscopy (FCS); YFP-dysferlin diffusing in detergent solution, SDS
[2] = molecular target: CFP-dysferlin / YFP-dysferlin (full-length human dysferlin) expressed in HEK293 cells (human) (UniProt O75923); experiment: photon counting histogram (PCH); detergent solubilized YFP-dysferlin in SDS; molecular brightness against YFP

binding [1]: no binding (condition: in SDS) | binding [2]: no binding (condition: in SDS)
Substance: CFP-dysferlin / YFP-dysferlin (full-length human dysferlin) expressed in HEK293 cells (from UniProt O75923 1-2080)
